The campaign covered roughly 31,000 sequences. About 1,400 (4.5%) were called active.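 Rule for the calls: active = median seed-adjusted z-score above 1 or below -1; inactive = the rest.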 The list shows a part of the results.

This assay in a line: Novel Modifiers of Survival Motor Neuron (SMN) Protein: Gene Identification via Genome-wide siRNA Screen.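 Note: luminescence tracks full-length SMN protein made from the SMN2 reporter.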 As to conditions: HEK293T SMN2-luciferase reporter, siRNA knockdown, 72 h; actives lie on both sides. Summed up: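 Steps: spot 1 pmol siRNA, add Lipofectamine RNAiMax in serum-free DMEM, seed HEK293T SMN2–luciferase reporter cells; incubate 72 h at 37 °C; add ONE-Glo; normalize luminescence to control siRNA, log10, MAD. Candidates: |MAD| > 1.0.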
As for GCUCCUAUCUGCAAACUGUTT against SLC2A6, the median seed-adjusted z-score was inactive: 0.616.

Consider GGAUCCAGAUCUGCAAUAATT against CYP2C9, for which the median seed-adjusted z-score was inactive: 0.246. Consider GCAAGAUCAAGGACCGCUATT against LMO1, for which the median seed-adjusted z-score was inactive: 0.104. On to CUGUCUCAGUGUUUGGUUATT against PIGZ, for which the median seed-adjusted z-score was inactive: 0.74. For the sequence ACAUGUUUUCUGACGGCAATT against BAX, the median seed-adjusted z-score was inactive: -0.478. In the case of CCGAAGACCUGGUUCCUAUTT against DDX51, the median seed-adjusted z-score is inactive: -0.0715. GCAGCACGCCUGAAUUUGATT against ESX1: the median seed-adjusted z-score is inactive: 0.275. On to GGAAACAACCAAACCAGAATT against USP27X, for which the median seed-adjusted z-score is inactive: 0.43.

In the case of AGACAGAGGCUACGUGUUUTT against IP6K1, the median seed-adjusted z-score is inactive: -0.317. Regarding CUCUAUAACAAGUAUAUCATT against STAMBP, the median seed-adjusted z-score is inactive: 0.511. Regarding GACCUUCUAUGGGCAUUUUTT against PRODH, the median seed-adjusted z-score was inactive: 0.497. Consider ACCAUUAAAUCUGAAAGUATT against FABP4, for which the median seed-adjusted z-score was inactive: 0.227.

For the sequence GCAACAAUAUUGCUCUAGATT against GALNT17, the median seed-adjusted z-score is inactive: 0.392. GCUUUUCCAUUAUAAGGCATT against FOXE1: the median seed-adjusted z-score is inactive: -0.316.

For the sequence GAUUAGCAGAGGUGCUAAATT against HMGN3, the median seed-adjusted z-score is inactive: -0.182.

For the sequence CAGUUGAAAGUAUAGAAAATT against SFXN4, the median seed-adjusted z-score was inactive: -0.174. Consider GGCAGGUUAUAUUGCUUUUTT against SLC35B2, for which the median seed-adjusted z-score was inactive: -0.313. For GAUCUGCAAGAGUUUCGUUTT against SPINT1 the value was inactive: 0.0172; for GACUGGGAAUCUAAGCAGATT against BTNL3, inactive: 0; for GUCGUUUACCUAAUGGUAATT against USP12, inactive: 0.121. Take CCUCCACAGUGUGAUUACATT against NCK1: the median seed-adjusted z-score was inactive: -0.0795.

As for GGAAAAGGGUUUUAGUAGATT against DNAL4, the median seed-adjusted z-score is inactive: 0. As for GCAAUAUUUUGAGCAGUUUTT against MSI1, the median seed-adjusted z-score is inactive: -0.806.

In the case of GCUUAGCACCUGGUGCACATT against LSR, the median seed-adjusted z-score is inactive: 0.306. Turning to GACUAUUACCACCAGAUGATT against GLI2, the median seed-adjusted z-score was inactive: -0.796. Consider GCCUUUUAAUUGCAUUGAUTT against ZNF471, for which the median seed-adjusted z-score is inactive: 0.364. For AACUAACUCUGUGAACAUATT against TRIAP1 the value was inactive: 0.253. For GAUGCGAUGUGACAAAGAUTT against APOL5 the value was inactive: -0.209; for AUACAUCCAUUGUUCAGGATT against POLR1C, inactive: -0.0299. With GCUGUGCACAUUGCCCAUATT against AARSD1, the median seed-adjusted z-score is inactive: -0.156. Next, GAUUGAUGCUGGAAGUAGATT against PMPCB: inactive: 0.507; GGAGACCAACUGCAACUUUTT against ZACN: inactive: 0.065; GCUCUUUACUUCAAUAUGATT against CHM: inactive: 0.743. Next, GGAUCGAACCCAUGGAUCATT against ROCK2: inactive: -0.149. With AGAAGAGCAUUGAGGUGCATT against FCRLB, the median seed-adjusted z-score is inactive: -0.00684.

As for CGCUCUUCGUCUACUCCGATT against DRD4, the median seed-adjusted z-score was inactive: -0.183. On to CGAUUAUGUAGCUACGAGATT against CDKL4, for which the median seed-adjusted z-score was inactive: 0.13. Turning to GGAAGUCUACGGCUCCACATT against SLC27A5, the median seed-adjusted z-score was inactive: 0.441.

On to GUCAUAGACUUAAAGGACUTT against SPSB3, for which the median seed-adjusted z-score is inactive: 0.457. AGCCUGUAGCUUAAACUUATT against KCTD12: the median seed-adjusted z-score is inactive: 0.431.

Turning to CAACCUGAAUUAAAGUCUATT against DARC, the median seed-adjusted z-score is inactive: 0.0814. As to ACCUGUACCUCGAAGUCUATT against GPBAR1, the median seed-adjusted z-score is inactive: -0.00293. As to GCAGGAACGAGACCAGCAATT against HRH2, the median seed-adjusted z-score is inactive: -0.257. Regarding GUUACGCCCUGAUUCUAAATT against MAT2A, the median seed-adjusted z-score is active: -1.9. Take GCAAGGUGGUGUCCCUGUATT against BOK: the median seed-adjusted z-score is inactive: 0. GUAUGCGACUGGGAUCUUATT against HP: the median seed-adjusted z-score was inactive: 0.

In the case of GCCCUCUUGUUCUAACUGATT against EIF5, the median seed-adjusted z-score was inactive: 0.362.

Consider GGACCAUCCUGAUUAUCCATT against AKR1C4, for which the median seed-adjusted z-score was inactive: -0.0323. With GGAAGGAUAUGAGCAUAGATT against KLHL4, the median seed-adjusted z-score is inactive: 0.

Consider GAACUUCGAGAGUCAAAUATT against MDS1, for which the median seed-adjusted z-score was inactive: 0.0345. In the case of GGAAUAUUAUGACUACAGUTT against UGT2B15, the median seed-adjusted z-score was inactive: 0.421. As for CCAACGACCUGGUUAUGAATT against FBP1, the median seed-adjusted z-score is inactive: -0.221. For GGAUAGUUUUUCGAAUUAATT against MYO9A the value was inactive: -0.567; for GCACACUUCUACUAUGCUATT against PAQR7, inactive: -0.0406. Next, GGUCAACCAGAAUACAUAUTT against DNAI1: inactive: -0.783; CUAAUUGUCUCACAGAAAATT against HDC: inactive: -0.0146; GCCUCUUCUGGAAACGAAATT against JMJD1B: inactive: 0.402.

On to GGACAAUCUUAUUCCUAUUTT against CFHR4, for which the median seed-adjusted z-score is inactive: -0.0972. Next, GCCUUGAUGCUGAUCAUCATT against MEP1B: active: 1.46; CGGUCCAAAUUGAAAGCGATT against STX1B: inactive: 0.229. Regarding CACUCAAAGUGCCUCUAAATT against SLC2A4RG, the median seed-adjusted z-score was inactive: -0.0232. As for GAUGAUGACAAUUAUGUGATT against RFNG, the median seed-adjusted z-score was inactive: 0. Consider CAACGAAGAGGGCAUGUUUTT against MEOX2, for which the median seed-adjusted z-score was active: 1.36. On to CAGUUUAUCUGCAUCCGAATT against HDAC6, for which the median seed-adjusted z-score was inactive: 0.0457. Take GAGCUUACUUUGCCUGGAATT against PSMA2: the median seed-adjusted z-score was inactive: -0.54. For the sequence GGAAUAGUCCCAUUAGCAATT against PDIA3, the median seed-adjusted z-score was inactive: -0.619. Turning to GCAGCAUCCUAGAGGAAAATT against EIF2B5, the median seed-adjusted z-score was inactive: -0.432. Turning to CAGACUCGAUGAUCCGGAUTT against ATP1B4, the median seed-adjusted z-score is inactive: 0.664. Consider GUGGAUUUCUUUAACCAGATT against MOBKL1B, for which the median seed-adjusted z-score was inactive: 0.31. Take GCACACUUGUAGUAGAUUATT against SOAT1: the median seed-adjusted z-score was inactive: 0.409. GGAUGGAGUACAUAUUAUUTT against UTP11L: the median seed-adjusted z-score was inactive: -0.755.

As to GCCUUUCUGUGCUUAUAGATT against ZNF426, the median seed-adjusted z-score is inactive: 0.2. Turning to CAGCUAAUCUAUUUCGAAUTT against MAN2A1, the median seed-adjusted z-score was inactive: -0.397. Turning to GGUCCUUAUUUGCUCAGUATT against FCRL3, the median seed-adjusted z-score was inactive: -0.642.

For the sequence UGAAGACGUGUGAACCUAATT against ARSD, the median seed-adjusted z-score was inactive: -0.447. Next, GCCUACGAAUGUUAUGAAUTT against ZNF12: inactive: -0.144; CAACCCUUAAUAGAACUAATT against PCDH20: inactive: 0.0594. Consider CCAUGAUCGAUGUCAUUGATT against GALNT17, for which the median seed-adjusted z-score was inactive: 0.392. For GGAGCUUUGUACAAUGAAATT against POU1F1 the value was inactive: 0.5; for GGCAGAUGCUAAUAACGGATT against 6-Mar, inactive: -0.483; for CUAUCCACCUUGGAUCGUATT against BAZ1A, inactive: 0.0896.

In the case of CAGCUUCCAUUAUGCCCAATT against EIF2B2, the median seed-adjusted z-score is inactive: -0.325. Take GGCUACAACGUGACCAAGATT against FZD4: the median seed-adjusted z-score is inactive: 0.0695. GCAGUGUCCUAAGCCUGGATT against ACCS: the median seed-adjusted z-score is inactive: -0.49.

Turning to ACUCAAGUGUGCAAGUUCATT against KLK7, the median seed-adjusted z-score is inactive: 0. For GGAUUACGACUCUCGAGGATT against CPNE7 the value was inactive: 0.262; for CGAGUACAGCGAUGACGAUTT against CAND2, inactive: 0.0936. Regarding AGAUUGAGACCGUUCGCUUTT against RFXANK, the median seed-adjusted z-score was inactive: -0.0665. For GUAGUUGACCAAGCUCAAATT against ACTR3B the value was inactive: -0.301; for GCAACAUUGCAGAAGAGCATT against TRIM28, inactive: -0.718.

On to GCACCAGGGUGAAAGUGUUTT against NHLRC1, for which the median seed-adjusted z-score was inactive: -0.582. GCACUAUUGUCACCAGAAATT against MARK4: the median seed-adjusted z-score is inactive: -0.675. As to CGGUUAUCCCUAAUAUCCATT against PCDHB11, the median seed-adjusted z-score is inactive: -0.257.

On to CCUUCCCUGUCGACACAACTT against GP1BB, for which the median seed-adjusted z-score is inactive: -0.711. With GCUCGUGACUGGCUAACAATT against FAHD2B, the median seed-adjusted z-score was inactive: 0.154. With AACCUGAACUCAUCCUACATT against BEST2, the median seed-adjusted z-score was inactive: 0.415. As to GAAACUUUGACUUAAAGAATT against FEZF2, the median seed-adjusted z-score was inactive: 0.203. Next, GGACCAAGAUGAUCAGAAATT against SAFB: inactive: -0.954; CUAUGAACGAGUCAAGGAATT against TTC9: inactive: -0.173. Take CCCUCGCUUUCUUCACAGUTT against ENTPD3: the median seed-adjusted z-score is inactive: -0.28. For GGAGGUCUCCUACAUCAAATT against ZAN the value was inactive: 0.736.

Regarding UGAUCACCAUCGGAAAUGATT against ACTA2, the median seed-adjusted z-score is inactive: 0.739. For the sequence GAUUCUACCCAAGUACAUATT against SLC25A36, the median seed-adjusted z-score was inactive: 0.134. Take GGAACACUUUCUCUCUAGATT against NOD2: the median seed-adjusted z-score is inactive: 0.129.

With GGACUACAGUAUACAUUGUTT against PCDH24, the median seed-adjusted z-score was inactive: 0.345.

For GGAGUACUGGAUGUUCAAATT against SLC29A3, the median seed-adjusted z-score was inactive: -0.0626. As for GAGUGGUAGUGCUCACGAATT against CPE, the median seed-adjusted z-score is inactive: 0.139. Turning to GAACAUUGGUGACUAUAUUTT against GRIP2, the median seed-adjusted z-score was inactive: -0.0256.

For the origin of these results see PubChem BioAssay AID1347426 (Functional Genomics Laboratory (NCATS/FGL), 2020).
